The record followed here is publication PMC2590617.

The target of this assay is death receptor DR5, tumor necrosis factor receptor superfamily member 10b (TNFRSF10B) (human (endogenous in DAOY)), O14763. The experiment in a line: co-IP; DAOY cells pre-treated with HGF for 72 h, then TRAIL for 2 h; 500 ug total protein in lysis buffer (100 mM Tris-HCl, 5 uM EDTA, 1% NP-40) with 5 ug anti-DR5 antibody at 4°C, protein A/G beads overnight, 5 washes; Western blot for caspase 8, FLIP, FADD, c-Met and DR5. The conditions noted are these: remark: other sources report otherwise.

Results are given in words; binding and its absence hold for the method and conditions named. Binding seen in cells or lysates may run through a third protein. Some results given as binding are weak or reduced against the parent protein; the word gives no strength.

B1: caspase 8, Q14790 1-479 (enzyme)
chain: MDFSRNLYDIGEQLDSEDLASLKFLSLDYIPQRKQEPIKDALMLFQRLQEKRMLEESNLSFLKELLFRINRLDLLITYLNTRKEEMERELQTPGRAQISAYRVMLYQISEEVSRSELRSFKFLLQEEISKCKLDDDMNLLDIFIEMEKRVILGEGKLDILKRVCAQINKSLLKIINDYEEFSKERSSSLEGSPDEFSNGEELCGVMTISDSPREQDSESQTLDKVYQMKSKPRGYCLIINNHNFAKAREKVPKLHSIRDRNGTHLDAGALTTTFEELHFEIKPHDDCTVEQIYEILKIYQLMDHSNMDCFICCILSHGDKGIIYGTDGQEAPIYELTSQFTGLKCPSLAGKPKVFFIQACQGDNYQKGIPVETDSEEQPYLEMDLSSPQTRYIPDEADFLLGMATVNNCVSYRNPAEGTWYIQSLCQSLRERCPRGDDILTILTEVNYEVSNKDDKKNMGKQMPQPTFTLRKKLVFPSD
For the molecule B1, the binding result is recorded as “binds”.
